At least one structure is not confirmed: it was looked up by name or label, or the drawing left a doubt.
Test system: Hippocampal neurons
Assay: Effect of inhibitors on BDNF-induced gene transcription (real time RT-PCR)
Type: cell-based, rat
Conditions: BDNF 20 min for immediate early genes, 3 hr for VGF
Experimental: Signaling cascades involved in BDNF-mediated synaptic strengthening include mitogen-activated protein (MAP) kinase, phospholipase C-γ (PLC-γ) and phosphoinositide-3 kinase (PI3K) (Gottschalk et al. (1999) supra; Minichiello et al. (2002) supra; Ying et al. (2002); Mizuno et al. (2003) supra). To determine whether these transduction pathways are also required for BDNF transcriptional regulation of immediate early genes at 20 minutes and for VGF at 3 hours, pharmacological inhibitors were employed (Table 2).
Effect of inhibitors on BDNF-induced gene transcription. The regulation of BDNF-induced genes in the presence of inhibitors was determined by real time RT-PCR. Neurons were pre-incubated with inhibitors for 30 minutes prior to BDNF treatment (20 minutes for immediate early genes and 3 hours for VGF). […] “blocked” indicates significant reduction of transcription in the presence of inhibitor plus BDNF relative to BDNF alone (p<0.05, ANOVA, n=3).
Each experiment consisted of four groups: vehicle, inhibitor alone, BDNF, BDNF plus inhibitor. Data were normalized to GAPDH and expressed as a fold change of vehicle control.
cDNA (100 μl) was prepared from 2 μg control or BDNF-treated RNA using random primers and Superscript II reverse transcriptase. […]

COc1ccc2c(c[n+](C)c3c4cc5c(cc4ccc23)OCO5)c1OC [CC, chelerythrine chloride]
Effect on BDNF-induced transcription of the immediate early genes and VGF: did not affect gene expression

O=c1cc(N2CCOCC2)oc2c(-c3ccccc3)cccc12 [LY294002]
Effect on BDNF-induced transcription of the immediate early genes and VGF: did not affect gene expression

— patent publication US20050272040A1, “Method for increasing synaptic growth or plasticity” (priority 2002, published 2005)
